Source: patent US8765783B2, “Pharmaceutical composition for treatment of disease due to vascular constriction or vasodilation” (Ono Pharmaceuticals Co., Ltd., priority 2002, dated 2014)

Tested on: removed rat heart
Assay: Removed rat heart (Langendorff heart)
Conditions: Langendorff heart mode
Source text: Rat (CD(SD)IGS, male, Charles River Japan Inc., 8 weeks old-10 weeks old, 300-450 g) was anesthetized by diethylether, opened the abdominal cavity, injected intravenously with heparin and then, exsanguinated to death. The heart was quickly removed by opening the chest cavity and the removed heart was immersed into cooled Krebs-Henseleit solution. The tissues were trimmed away under the cooling, aortic arches were inserted into the heart functional measuring equipment and fixed with sutures without leaking out. The rat heart function was measured using the heart functional measuring equipment (model IPH-W2, Labo-support). The equipment was used in the Langendorff Heart mode (non-working heart mode) and load was 68-70 mmHg. […] Catheter filled with physiological saline was inserted into the left ventricle, the catheter was connected to the piezotransducer (DX-100, Nihon Kohden) and the left ventricle pressure (LVP) was measured through strain compression amplifier (AP-601G, Nihon Kohden). Heart rate was calculated using LVP data with the heart rate measuring equipment (AT-601G, Nihon Kohden) and dLVP/dt was calculated with differential processor (EQ-641G, Nihon Kohden). Probes of electromagnetic flowmeter (model FF-020T, inside diameter 2 mm, Nihon Kohden) were set on the way to the passage of nutrient solution and the flow rate of nutrient solution (corresponding the blood flow rate of coronary artery) was measured using electromagnetic flowmeter (MFV-3100, Nihon Kohden). Administration of S1P and the compounds was performed by injection of dilution with nutrient solution into the passage of nutrient solution using infusion pump. The injection rate of drug solution was set as the flow rate of nutrient solution before starting of administration. […] Using the above mentioned model, effect of EDG-5 antagonist on heart function was examined. […] EDG-5 antagonist, the compound (1), the compound (2) and the compound (3) increased the flow rate of nutrient solution. In addition, they increased contractive force of heart muscle at the same time. […]

Structure (SMILES) | effect on heart rate
Cc1nn(C)c2nc(NNC(=O)Nc3c(Cl)cncc3Cl)cc(C(C)C)c12 [compound (1), N-(1H-1,3-dimethyl-4-isopropylpyrazolo[3,4-b]pyridin-6-yl)amino-N′-(3,5-dichloropyridin-4-yl)urea] | little effect
O=C(Nc1cccc(C(F)(F)F)c1)N1CCC(O)(c2ccc(Br)cc2)CC1 [compound (2), 4-(4-bromophenyl)-4-hydroxy-N-(3-(trifluoromethyl)phenyl)-1-piperidinecarboxamide] | little effect
Cc1nn(C)c2nc(NNC(=O)Nc3cc(Cl)nc(Cl)c3)cc(C(C)C)c12 [compound (3), N-(2,6-dichloro-4-piridinyl)-2-(4-isopropyl-1,3-dimethyl-1H-pyrazolo[3,4-b]pyridin-6-yl)hydrazinecarboxamide] | little effect
